Results deposited as PubChem BioAssay AID504774 (Drosophila RNAi Screening Center, 2011).
Purpose: 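Fly genes whose loss alters survival after alkylation damage to DNA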 (primary screen). Cell system: Drosophila Kc167 cells. Knock-down reagent: long dsRNA against Drosophila genes, about 0.25 µg dsRNA per well. Timing: about 6 days: 3 days knock-down, then 3 days with or without MMS. Challenge: methyl methanesulphonate 0.004% (w/v) for 3 days after knock-down. Measured: 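Viability in wells given MMS, read as ATP luminescence, normalised by quantiles plate by plate and averaged across replicates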. Scale: mean viability with MMS: higher = more surviving cells after MMS.
The deposit covers about 23,000 reagents; below is a random part of those that have a named target and a result. 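Values are quantile-normalised luminescence on an arbitrary scale; higher means more cells surviving MMS.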 The numbers tell different reagents against one gene apart. Not all columns of the deposit are shown. No sequences are given here.

| gene | reagent | mean viability with MMS |
| --- | --- | --- |
| Dpy-30L1 | 1 | 3.43e6 |
| PMCA | 1 | 3.58e6 |
| PMCA | 2 | 3.72e6 |
| PMCA | 3 | 3.72e6 |
| fd3F (retired record) | 1 | 2.83e6 |
| fd3F (retired record) | 2 | 3.60e6 |
| Atg8a | 1 | 3.57e6 |
| CG16790 | 1 | 3.65e6 |
| CG15435 | 1 | 3.34e6 |
| Dyrk3 | 1 | 3.51e6 |

Copied from the list:
Entry of PMCA #3 under “mean viability with MMS”: 3.72e6
CG16790, mean viability with MMS → 3.65e6
Entry for fd3F (retired record) #1 in “mean viability with MMS”: 2.83e6
Under “mean viability with MMS”, PMCA #1 reads 3.58e6

More reagents follow.
| gene | reagent | mean viability with MMS |
| --- | --- | --- |
| CG31999 | 1 | 3.51e6 |
| CG31999 | 2 | 3.54e6 |
| ENGase | 1 | 1.93e6 |
| ENGase | 2 | 3.49e6 |
| Hcf | 1 | 3.39e6 |
| nmdyn-D7 | 1 | 3.60e6 |
| Fancl | 1 | 3.69e6 |
| CG1943 | 1 | 3.58e6 |
| CG12009 | 1 | 3.73e6 |
| Traf4 | 1 | 3.29e6 |
| Traf4 | 2 | 3.54e6 |
| CG12147 | 1 | 3.56e6 |
| NaCP60E | 1 | 3.50e6 |
| NaCP60E | 2 | 3.86e6 |
| CG9701 | 1 | 3.46e6 |
| Qsox4 | 1 | 3.48e6 |
| Oseg6 | 1 | 3.46e6 |
| CG15515 | 1 | 3.58e6 |
